This data set can be described thus: Microsomal metabolic stability. The settings on record: microsomal stability assay; one value per compound. The data set is classed as in vitro ADME, rat. On the procedure:
The metabolic stability of compounds LASSBio‐1971 (1) and LASSBio‐1974 (2) (10 μM) was incubated in 1 mg/mL of rat microsomes in the presence and absence of the cofactor (i.e., NADPH‐generating system) at the same concentrations as in the previous section. After mixing and incubating at 37°C in a shaking water bath for 1 h, 500 µL cold acetonitrile containing the internal standard was added to terminate the reaction at different time intervals (0, 15, 30, 45, and 60 min).

Take `C=CC(=O)Nc1ccc2ncc(NC(=O)Nc3ccccc3)nc2c1` [LASSBio‐1971 (1)]: the Recovery is 90.59%.

With `CN(C)C/C=C/C(=O)Nc1ccc2ncc(NC(=O)Nc3ccccc3)nc2c1` [LASSBio‐1974 (2)], the Recovery is 93.17%.
